From PMC10163288
The other results are listed elsewhere or left out.

B1: il10ra_site1_sap_16_mot_HHH_b1_01754_af2_000000279_0001_1_18_H_._HHH_b2_04217_af2_0001_0000300007_0000001_0_0001 (protein)
chain: SSSSDVEEEVKELLEEARELAEKGNPREAIKLLARATRLALKAGDAELLQEVWRVIKELASSSSS
B2: il10ra_site1_normal_mot_8756ee2cf497b5429c717dfc0c0bcfd6_0001_000000186_0001_1_13_H_._HHH_b2_06282_af2_0001_0000100003_0000001_0_af2pred_0001 (protein)
chain: SSSSSEIERLYELARRAAELIHEGDREEAREVVEEARELAEELNNLAARAVLEFLEKHINSSSSS
B3: il10ra_site1_normal_mot_HHH_b2_02337_000000026_0001_38_52_H_._HHH_b2_02614_0001_0000100001_0000001_0 (protein)
chain: SSSSSEEEEESKRLLRELEELLEEGDEERFIQVAQRAAQFAFERSDQELLRAIWELVKKLSSSSS
B4: il10ra_site1_sap_22_mot_HHH_b1_05185_000000011_0001_22_39_H_._HHH_b2_01732_0001_0000200022_0000002_0_0001_af2pred_0001 (protein)
chain: SSSDEERAEELRKEIEELLKRGDDEEAEELLEELLRLAAHLRDPELSYAALRLFALLTQLHSSSS
B5: il10ra_site1_sap_16_mot_HHH_b1_04708_000000195_0001_1_19_H_._HHH_b1_03229_0001_0000400029_0000001_0_0001 (protein)
chain: SSSSDEEEERIRELLEQVEELRKEGDEREAVRLLQEAVQLAYRLKDAELLREIWRLAEEIGSSSS
B6: il10ra_site1_sap_12_mot_HHH_b2_05591_000000091_0001_1_20_H_._8753768fdb24d6d44452682509039a45_0001_1_af2_0001_0000100001_0000002_0_0001 (protein)
chain: SSSSDMKEELARALERIIKQALENGDEESARFLLEALEMLAEELNDPELRELVEELRERLDSSSS
B7: il10ra_site1_sap_35_mot_HHH_b1_07527_000000076_0001_1_15_H_._HHH_b1_03840_af2_0001_0000300016_0000001_0_0001 (protein)
chain: SSSSDELTQEIYELIRELVEAALDGDHERVEELYEEIRELIEEAGNRLMEYQLEFAYRRAQSSSS
B8: il10ra_site1_normal_mot_HHH_b1_02708_af2_000000019_0001_23_39_H_._HHH_b2_02879_af2_0001_0000300013_0000001_0 (protein)
chain: SSSSDEEQRVAELLFRVVRLFAEGNPEEAEKVLEEAKRLAEELGDEELERYVEIAENFVRSSSSS
B9: il10ra_site1_normal_mot_HHH_b2_07569_000000265_0001_38_56_H_._HHH_b2_06896_0001_0000200010_0000001_0 (protein)
chain: SSSSSSEEEEEVEELLEEAKQIPDPEERARVLAEALRVAFEGQNPELVQLVWKVVKELFSSSSSS
B10: il10ra_site1_normal_mot_HHH_b1_03262_af2_000000181_0001_43_57_H_._HHH_b2_01783_0001_0000200010_0000001_0_af2pred_0001 (protein)
chain: SSSSDRDEEAVKRALRLARLAAENGDEEAVKFLLKAAKELAERANDPELERLVEEVIEELSSSSS
B11: il10ra_site1_normal_mot_HHH_b1_04940_000000219_0001_1_18_H_._HHH_b1_08156_0002_0000300031_0000001_0_af2pred_0001 (protein)
chain: SSSSDEIEKSLERLLEALRHAIELGDEERAELAIKDIQHTAELAKDEEVQELVERLREELESSSS
B12: il10ra_site1_normal_mot_HHH_b1_05357_000000034_0001_23_39_H_._HHH_b1_06984_af2_0002_0000100005_0000001_0_af2pred_0001 (protein)
chain: SSSSDRVEELLEEAKEAAERGDKHEAAYLLIRAFALANRLGDPELRELVEEVAQEVLELLSSSSS
B13: il10ra_site1_normal_mot_HHH_b2_03183_af2_000000055_0001_40_56_H_._HHH_b1_04876_0001_0000200022_0000001_0 (protein)
chain: SSSSSEELRELAEAALRLAEQLIEFGDPRAVRFLEESLEKLSKEAKDPEIEEILEEVQELLSSSS
B14: il10ra_site1_sap_17_mot_802863e75c239dc72d0ffd0be86c571b_0001_1_000000009_0001_36_49_H_._HHH_b1_01883_af2_0001_0000500024_0000001_0_0001 (protein)
chain: SSSSDLEEEVEELLEELKHAKSEEEYAELALRVVRVAYESNDPELLEEVWEVIKEVASRLSSSSS
B15: il10ra_site1_normal_mot_HHH_b1_01082_af2_000000031_0001_3_19_H_._HHH_b1_05184_af2_0001_0000100004_0000001_1 (protein)
chain: SSSSDEEAYELLKRIIEQLIELARNGDPEEAEELAEKAREELEELGDPFFAEQLERAFRLISSSS
B16: il10ra_site1_sap_17_mot_HHH_b1_06789_af2_000000041_0001_1_20_H_._HHH_b2_08192_af2_0001_0000100001_0000001_1_0001 (protein)
chain: SSSSSSSKADEIYELIRKAMEIEDPKEAEEVLEEAKRLAEELGSMTLLWIVEWLLEKLSSSSSSS
B17: il10ra_site1_sap_16_mot_HHH_b1_01307_000000115_0001_1_18_H_._HHH_b2_08110_0001_0000400034_0000001_0_0001_af2pred_0001 (protein)
chain: SSSSSEIEEEVKELLEEAKRIDDKDERAHVLLRAFAVAVRGNNPELEEEVERVAIELSEKSSSSS
B18: il10ra_site1_sap_23_mot_HHH_b2_00475_000000107_0001_44_57_H_._HHH_b1_00351_0001_0000200016_0000001_0_0001_af2pred_0001 (protein)
chain: SSSSSEEEEEVEELLRQAEEARENGDPELVFKLLRRAIEIAAKNNDPELLRLVREFLKRLFSSSS
B19: il10ra_site1_normal_mot_HHH_b1_06994_000000193_0001_40_55_H_._HHH_b2_06031_0001_0000100010_0000001_0 (protein)
chain: SSSSDQEEELIRAALRLVKQILEHGDPRSARFLLWAARLLAEEINNEELLERVEELEEELNSSSS
B20: il10ra_site1_sap_13_mot_HHH_b2_01235_000000294_0001_1_18_H_._HHH_b1_00824_0001_0000300026_0000002_0_0001 (protein)
chain: SSSSDDLEQLFELLRRIAELLHEGDPEEARELIEEAKELAEELNSDVFRMQLEYLEKQAESSSSS
B21: il10ra_site1_normal_mot_HHH_b1_02062_000000185_0001_1_20_H_._HHH_b1_08541_0001_0000100021_0000002_0 (protein)
chain: SSSSTEERRRAYELSREIVELESEGDEERAEELLEELRELVEKLGDENFEFIVRLLERLLHSSSS
B22: il10ra_site1_normal_mot_8756ee2cf497b5429c717dfc0c0bcfd6_0001_000000186_0001_1_13_H_._HHH_b1_02500_0001_0000100009_0000001_0 (protein)
chain: SSSDVAERVQELSREAAELDLQGNPEEAEEVVEEALELAEEGNNDVLRVTLEYLLRLIRENSSSS
B23: il10ra_site1_normal_mot_d2735b3c0fe9b97dc03c9ec5d23a03fd_0001_1_af2_000000071_0001_17_32_H_._HHH_b1_00695_0001_0000200018_0000001_0 (protein)
chain: SSSSTEERQHLEAIIWFAEITRRENPHAARRALEFALEIAEELNDEEAAERIEELLREIRESSSS
B24: il10ra_site1_sap_23_mot_HHH_b1_05214_000000232_0001_38_57_H_._66981ac803f9207b9bc56eb15b90107a_0001_0001_0000100001_0000002_0_0001 (protein)
chain: SSSSSSDVEEILEEAEEARERGDPERALRLLQEAIRLAFQLGDAEKLQLIYEVAKRIESSSSSSS
B25: il10ra_site1_normal_mot_HHH_b2_03038_000000109_0001_1_20_H_._HHH_b2_04520_0001_0000400053_0000002_0 (protein)
chain: SSSSSEAEELYKLSREINELIVEGDREEAEELLEEARELAERAGNLNFRVILEFLERLLESSSSS
B26: il10ra_site1_normal_mot_HHH_b1_02997_000000220_0001_39_52_H_._HHH_b1_06600_0001_0000200014_0000002_0_af2pred_0001 (protein)
chain: SSSSSKSEEAVKLLREAIEALAEGNPEEAEELLEEARRLAEEANNLITRVIIEFLLEQLESSSSS
B27: il10ra_site1_normal_mot_HHH_b2_00277_af2_000000172_0001_1_17_H_._HHH_b2_00497_0001_0000300029_0000002_1_af2pred_0001 (protein)
chain: SSSSSDLEEEVRKLLEEARQIEDLREAAYALTRAFAIAVRNNNEELEREVKEVAKEVMHLSSSSS
B28: il10ra_site1_sap_23_mot_HHH_b1_06816_000000239_0001_1_19_H_._HHH_b1_02701_0001_0000100010_0000002_0_0001 (protein)
chain: SSSDRAQRAYELLKEIIRLASDGNPEEAEELLRELEELIKERGSPVMEFLLRKAEELVEETSSSS
B29: il10ra_site1_sap_15_mot_HHH_b2_07596_000000080_0001_23_39_H_._HHH_b2_00613_0001_0000100015_0000001_0_0001_af2pred_0001 (protein)
chain: SSSSSSDIARRVYELSREAAQIDDPEEAQEVAEEALELAEEGNNPVLVHVARFLLERLSSSSSSS
B30: il10ra_site1_normal_mot_HHH_b1_00999_000000080_0001_41_55_H_._HHH_b2_07384_0001_0000600020_0000002_0 (protein)
chain: SSSSSSEEVEELLEEAEELYKRGNEEEVTRVLQEATQFAFELQDPELLRLVWKLAKELGSSSSSS
B31: il10ra_site1_sap_15_mot_HHH_b1_01939_000000180_0001_37_52_H_._HHH_b1_08166_af2_0001_0000600039_0000001_0_0001 (protein)
chain: SSSSSEEEEEAQRLLEELERLLEEGDHEEFIRVSVRALRVIYRAQNPELLRLLWELVKKWGSSSS
B32: il10ra_site1_sap_17_mot_23887b7af660956ed16a9c889f5d2f9d_0001_1_af2_000000073_0001_18_33_H_._HHH_b1_04072_af2_0001_0000200002_0000001_0_0001_af2pred_0001 (protein)
chain: SSSSDEEEEEVEELLKRLEEAIKEGDLELASKLIRRLAKLIAELQDEELLRELRRLLRELFSSSS
B33: il10ra_site1_sap_24_mot_HHH_b2_04912_000000028_0001_1_20_H_._HHH_b2_02255_af2_0001_0000400043_0000001_0_0001 (protein)
chain: SSSSDEEYEEYAKALERIVKLLHEGDREEAERLAEELLEELREQGNRLMTYQVEHLLKLVRSSSS
B34: il10ra_site1_sap_14_mot_HHH_b1_05254_000000006_0001_1_19_H_._HHH_b2_02801_0001_0000600080_0000001_0_0001 (protein)
chain: SSSDAHRRIYELSRRVAELDHDGDTEEAREVLEEAQELAKEAGDRVLLAVLEFLEELLERLSSSS
B35: il10ra_site1_sap_18_mot_HHH_b1_03230_000000248_0001_1_19_H_._HHH_b2_05063_af2_0001_0000500013_0000001_0_0001 (protein)
chain: SSSSSEEEQRLEELIEEAEELLKNGDPERANKVLAEAVRLAFQLGDKEALQRIWELAKRSSSSSS
B36: il10ra_site1_normal_mot_HHH_b1_02997_000000220_0001_39_52_H_._HHH_b1_07617_0001_0000200017_0000001_0_af2pred_0001 (protein)
chain: SSSSSEHQRIYELIREAVRLAENGNPEEAREVVEEAQELAEEANDEAAEILIKFLLRKIEGSSSS
B37: il10ra_site1_sap_18_mot_HHH_b2_03076_af2_000000041_0001_42_56_H_._HHH_b1_04580_0001_0000300035_0000002_0_0001 (protein)
chain: SSSSDAYEAAKRIIERVLRLLEEGNEEEARELVERLREFAEERNSPILKATVRVLERIVESSSSS

The binders below were run against il10ra, Q13651 (assay: yeast display titration).

Apparent Kd, inactive:
B1 no binding seen, B2 no binding seen, B3 no binding seen, B4 no binding seen, B5 no binding seen, B6 no binding seen, B7 no binding seen, B8 no binding seen, B9 no binding seen, B10 no binding seen, B11 no binding seen, B12 no binding seen, B13 no binding seen, B14 no binding seen, B15 no binding seen, B16 no binding seen, B17 no binding seen, B18 no binding seen, B19 no binding seen, B20 no binding seen, B21 no binding seen, B22 no binding seen, B23 no binding seen, B24 no binding seen, B25 no binding seen, B26 no binding seen, B27 no binding seen, B28 no binding seen, B29 no binding seen, B30 no binding seen, B31 > 644 nM, B32 no binding seen, B33 > 528 nM, B34 no binding seen, B35 no binding seen, B36 no binding seen, B37 no binding seen
